Results as given in patent publication US20120015998A1 (priority 2010, published 2012).
At least one compound was matched to its structure with a doubt left.

Test system: actinic keratoses lesions
Assay: Phototherapy of actinic keratoses lesions with topical photosensitizer prodrug and red light emitting OLED (Device A)
Assay type: in vivo, person
Conditions: 16.8% topical cream on individual lesions; excess removed with saline; illuminated with red OLED Device A
Source text: 5-Aminolevulinic acid HCl (20% topical solution, available as LEVULAN® KERASTICK® from DUSA® Pharmaceuticals) is topically applied to individual lesions on a person suffering from actinic keratoses.
Methyl aminolevulinate (16.8% topical cream, available as METVIXIA® Cream from GALERMA LABORATORIES, Fort Worth, Tex., USA) is topically applied to individual lesions on a person suffering from actinic keratoses.

COC(=O)CCC(=O)CN.Cl [methyl aminolevulinate, Methyl aminolevulinate]
number or severity of the lesions after the treatment: reduced
